The other results are listed elsewhere or left out.

Binding signal data for 42 sequences are collected here from paper PMC7819943, “Rice protein-binding microarrays: a tool to detect cis-acting elements near promoter regions in rice”.

The test has as its target T1, OsSMF1 (Oryza sativa, UniProt Q6ZLB0 1-436).
T1 sequence: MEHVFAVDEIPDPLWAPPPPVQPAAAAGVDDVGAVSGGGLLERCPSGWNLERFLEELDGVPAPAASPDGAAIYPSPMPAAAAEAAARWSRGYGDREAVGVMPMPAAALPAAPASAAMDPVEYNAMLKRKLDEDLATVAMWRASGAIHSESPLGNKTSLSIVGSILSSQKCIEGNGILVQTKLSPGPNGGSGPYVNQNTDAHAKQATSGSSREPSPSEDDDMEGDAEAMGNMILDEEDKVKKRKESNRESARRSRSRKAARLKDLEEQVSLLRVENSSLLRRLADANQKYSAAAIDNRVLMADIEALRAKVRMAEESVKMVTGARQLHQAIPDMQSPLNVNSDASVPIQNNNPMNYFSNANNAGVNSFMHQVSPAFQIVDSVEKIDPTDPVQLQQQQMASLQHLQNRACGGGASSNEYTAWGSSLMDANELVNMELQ
The experiment in a line: protein-binding microarray (RPBM); PBS, 2% BSA, 51.3 ng/ul salmon testes DNA, 50 uM zinc acetate, 200 nM TF, 25 C, 1 h; high values mean tight binding. The following applies: protein: recombinant; tags: N-terminal polyhistidine and DsRed monomer fusion (pET32a); chain copies: 2; label: CyDye5-dUTP incorporated in the synthesized complementary strand; 3' TTTTT single-stranded linker to array surface; dsDNA, one strand shown. The method in brief: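 The binding signal is fluorescence intensity per feature, in arbitrary units, read on an Axon 4000B scanner. Polyhistidine- and DsRed-tagged transcription factors (N-terminal fusions) from E. coli BL21-CodonPlus were purified on Ni–NTA and applied at 200 nM for 1 h at 25 °C to a double-stranded, BSA-blocked custom Agilent array in buffer with 50 µM zinc acetate.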
For “CACACGATTGAGTGACCAGATTACTCATTACACGTTCAATCGGAGTCACCTAGTGCAG”, the binding signal is 3590 fluorescence intensity (a.u.).

Regarding “CCCTGTCTTCCACGTGATTCAGTGCCCCACGTCACTGATACGGAGTCACCTAGTGCAG”, the binding signal was 12200 fluorescence intensity (a.u.).

As to “TCACTGCATTACTCTCAGTACAGTCAGTACATATAGCCGTCGGAGTCACCTAGTGCAG”, the binding signal is 4260 fluorescence intensity (a.u.).

With “GACATATTTTAAAATTCCGGTCGATATAATGACTTGTCGGCGGAGTCACCTAGTGCAG”, the binding signal is 3210 fluorescence intensity (a.u.).

For the sequence “AGCGACGCACCACAATACGGACGCATTCATGACACGTACCCGGAGTCACCTAGTGCAG”, the binding signal is 6280 fluorescence intensity (a.u.).

As to “CTCTCTCTCTCTCTCTCTCTACGACTCCCACCTCCACCTCCGGAGTCACCTAGTGCAG”, the binding signal is 3580 fluorescence intensity (a.u.).

As for “GTCTGGATCAGAGCTGTCCACATTGGTTGTATTCCTCTTTCGGAGTCACCTAGTGCAG”, the binding signal was 3620 fluorescence intensity (a.u.).

Consider “TTTGTATAGAAAGTTTTCGTACGAAAAGCGTGTTACTAGTCGGAGTCACCTAGTGCAG”, for which the binding signal is 29900 fluorescence intensity (a.u.).

For “TCATTTATTGGATTGGGAAGCGGTTTCGTCCGACGTGGCACGGAGTCACCTAGTGCAG”, the binding signal is 27900 fluorescence intensity (a.u.).

For “ACAAGCAAATTATTTAATGAGATTTTATCTAGCTCAATTTCGGAGTCACCTAGTGCAG”, the binding signal was 24100 fluorescence intensity (a.u.).

On to “ATTGATCTCCTTTGACTTTTGCCAGTATCTCCTCTTCCTTCGGAGTCACCTAGTGCAG”, for which the binding signal was 30700 fluorescence intensity (a.u.).

As for “CGATCGTGCTTGTCATCCTGACGTACAACCGCGTGTGCTACGGAGTCACCTAGTGCAG”, the binding signal was 5070 fluorescence intensity (a.u.).

Turning to “AGCTGCATATATTGATTGACAGGTGTACCGATTCCTTATGCGGAGTCACCTAGTGCAG”, the binding signal is 5900 fluorescence intensity (a.u.).

Turning to “CAGTTTCATATTTCACATCTAGATTAAGTATTAGTAGCAACGGAGTCACCTAGTGCAG”, the binding signal was 3170 fluorescence intensity (a.u.).

“TGCTGCTGCCCGCGGCGCGCGTGGCCGCCGCCGTCCTCCTCGGAGTCACCTAGTGCAG”: the binding signal was 3390 fluorescence intensity (a.u.).

For the sequence “ACACACGGCAGACGGCACCCACCACCCAAACTCGTTTTGGCGGAGTCACCTAGTGCAG”, the binding signal was 32600 fluorescence intensity (a.u.).

On to “CTTTAATAATTGAACAGAGACGTATATAATTTTATAATTACGGAGTCACCTAGTGCAG”, for which the binding signal is 3720 fluorescence intensity (a.u.).

In the case of “GTGAATCTCCGGAAAACGACGACACTATAACACTCGGCGTCGGAGTCACCTAGTGCAG”, the binding signal was 17400 fluorescence intensity (a.u.).

As to “GTAGCGTAGACGTCTCCGCCCATTCCCAATTTCCCATTCCCGGAGTCACCTAGTGCAG”, the binding signal is 31500 fluorescence intensity (a.u.).

“AAATTGCCACGTAAGTGCCATGTCATATGAAGACCGAGTCCGGAGTCACCTAGTGCAG”: the binding signal was 17800 fluorescence intensity (a.u.).

For “TAAAGCATCCGACACTGCCACGTGGGCCCACCGACCCGACCGGAGTCACCTAGTGCAG”, the binding signal is 22600 fluorescence intensity (a.u.).

“ATTTAGTCTGTTACCACCTGTGGTTAGTACAAATGAAGTTCGGAGTCACCTAGTGCAG”: the binding signal is 20700 fluorescence intensity (a.u.).

Turning to “TGGCCGCGCTCATCTTTCCGCCCGTATTACACGTACGCAGCGGAGTCACCTAGTGCAG”, the binding signal was 6660 fluorescence intensity (a.u.).

On to “GTGTAGGTGGCGGCGGCGAGGACGTGGCGGAAGGGGCGGTCGGAGTCACCTAGTGCAG”, for which the binding signal is 5530 fluorescence intensity (a.u.).

On to “TCTGACTGCCTCCGTCACTCCGTGCCTCGTTGGGAGCAGCCGGAGTCACCTAGTGCAG”, for which the binding signal is 5300 fluorescence intensity (a.u.).

Take “TCCTCCTCCTCCGGCTGCCACCGCCACGCCTCCCCGCATGCGGAGTCACCTAGTGCAG”: the binding signal was 3160 fluorescence intensity (a.u.).

In the case of “AAGTAAATCAACGTCCGTGATCTGCGCACGTCACCGGCTTCGGAGTCACCTAGTGCAG”, the binding signal was 6410 fluorescence intensity (a.u.).

“AACTCAGGGGCGGATCAACACCCTGTCACCTGGTCCACGCCGGAGTCACCTAGTGCAG”: the binding signal is 3840 fluorescence intensity (a.u.).

Consider “CGTGTTGTTTCTTACGTACCATTTAAATAGTTACTCTCTCCGGAGTCACCTAGTGCAG”, for which the binding signal was 3620 fluorescence intensity (a.u.).

For “TTTTCGCACATGTTTGGTCACCTCTAGCACTCTGTCGAAGCGGAGTCACCTAGTGCAG”, the binding signal is 3600 fluorescence intensity (a.u.).

As to “GGCGAGCCCAACTAACCCGTCCACATCCTCATTGAGTAGTCGGAGTCACCTAGTGCAG”, the binding signal is 4400 fluorescence intensity (a.u.).

In the case of “TGGCCCTGTTCAGGTCGCTCTTCCACGTGTGTGACATTGGCGGAGTCACCTAGTGCAG”, the binding signal is 8260 fluorescence intensity (a.u.).

Consider “TGGTACGTAGTACGGACGACGTGTCATCCCCTTGCGGCGCCGGAGTCACCTAGTGCAG”, for which the binding signal was 8840 fluorescence intensity (a.u.).

Regarding “CTTCAGTCATTTTCCATCACATCAACCTGTCATACACACACGGAGTCACCTAGTGCAG”, the binding signal is 4000 fluorescence intensity (a.u.).

As to “TAAATTTCTGTAGCAATGTGCGGGGTCTCATCATCTAGTTCGGAGTCACCTAGTGCAG”, the binding signal was 3220 fluorescence intensity (a.u.).

On to “ATGGTATGTCACGCTGTGACTTGCCTTAGCTAAGTCACTGCGGAGTCACCTAGTGCAG”, for which the binding signal is 3750 fluorescence intensity (a.u.).

In the case of “AGAAGGTCGTGGCGAGGGAGGGTGGGCGACGGGCGTGGCGCGGAGTCACCTAGTGCAG”, the binding signal was 4140 fluorescence intensity (a.u.).

As to “TCGGTTTCGCACAACCGTTGCGTGAAAATGACGTGGAATGCGGAGTCACCTAGTGCAG”, the binding signal is 12000 fluorescence intensity (a.u.).

“GCCGTGCCGTGCCGTGCCGGCCCGCGGGCTCGGCCAGCGGCGGAGTCACCTAGTGCAG”: the binding signal was 30700 fluorescence intensity (a.u.).

Consider “CTCCCGCCTCCCGCCCACGCAATCACCTCTCTCTCTCTCTCGGAGTCACCTAGTGCAG”, for which the binding signal was 4200 fluorescence intensity (a.u.).

For “GAGTTGTAGTTGGATGGTTCCACGTCAATTCCGGAGTTGACGGAGTCACCTAGTGCAG”, the binding signal is 8790 fluorescence intensity (a.u.).

Take “TCACCTCACGCTCACAGTGACACTGACACAAGTGCATAGCCGGAGTCACCTAGTGCAG”: the binding signal is 5090 fluorescence intensity (a.u.).
